Measured values from patent publication US12012414B1, “Imidazo[1,5-a]pyrido[4,3-e]pyrimidines as CK2 inhibitors” (KING FAISAL UNIVERSITY, priority 2024, dated 2024).

Legend:
Assay type in all cases: cell-based
[1] = tested on: PC3 (prostate); experiment: In vitro cytotoxic activity (MTT) assay, PC3; settings: Homo sapiens, PC-3; PC3 cells, exposed for 96 hours, 50% inhibition of cell proliferation; read-out: Cytotoxicity activity IC50, PC3 (prostate)
Protocol: (§1) Compounds 1-16 were screened for their in vitro cytotoxic activity utilizing a 3-(4,5-dimethyl-thiazol-2-yl)-2,5-diphenyltetrazolium bromide (MTT) assay against selected cancer human cell lines consisting of PC3 (prostate), HCT116 (colon), A375 (melanoma), H1299 (lung), MIAPaCa-2 (pancreas), HL60 (leukemia), MCF7 (breast), MDA-MB-231 (breast) (T. Mosmann, J. Immunol. Meth., 1983, 65, 55-63). The cells were cultured at 37° C. in RMPI1640 medium supplemented with 10% fetal bovine serum, 50 IU/mL penicillin, and 50 μg/mL streptomycin in a 5% CO2 incubator. All cells were sub-cultured 3 times/week by trypsinisation. Viable cells were seeded and allowed to adhere for 12 hours before a test drug was added in 96-well plates at an initial density of 1.0×10^5 cells/mL. Tumor cell lines were separately exposed to various concentrations of the tested compounds followed by incubation at a temperature of 37° C. during 96 hours inside a medium of fresh RMPI 1640. Cells were subsequently incubated at 37° C. using MTT at 0.5 mg/mL during 4 hours. After removal of supernatant, formazan crystals were dissolved in isopropanol and the optical density was measured at 570 nm. CX-4945 was used as a positive control.

[2] = tested on: HCT116 (colon); experiment: In vitro cytotoxic activity (MTT) assay, HCT116; settings: Homo sapiens, HCT-116; HCT116 cells, exposed for 96 hours, 50% inhibition of cell proliferation; read-out: Cytotoxicity activity IC50, HCT116 (colon)
Protocol: as §1

[3] = tested on: A375 (melanoma); experiment: In vitro cytotoxic activity (MTT) assay, A375; settings: Homo sapiens, A-375; A375 cells, exposed for 96 hours, 50% inhibition of cell proliferation; read-out: Cytotoxicity activity IC50, A375 (melanoma)
Protocol: as §1

[4] = tested on: H1299 (lung); experiment: In vitro cytotoxic activity (MTT) assay, H1299; settings: Homo sapiens, NCI-H1299; H1299 cells, exposed for 96 hours, 50% inhibition of cell proliferation; read-out: Cytotoxicity activity IC50, H1299 (lung)
Protocol: as §1

[5] = tested on: MIAPaCa-2 (pancreas); experiment: In vitro cytotoxic activity (MTT) assay, MIAPaCa-2; settings: Homo sapiens, MIA PaCa-2; MIAPaCa-2 cells, exposed for 96 hours, 50% inhibition of cell proliferation; read-out: Cytotoxicity activity IC50, MIAPaCa-2 (pancreas)
Protocol: as §1

[6] = tested on: HL60 (leukemia); experiment: In vitro cytotoxic activity (MTT) assay, HL60; settings: Homo sapiens, HL-60; HL60 cells, exposed for 96 hours, 50% inhibition of cell proliferation; read-out: Cytotoxicity activity IC50, HL60 (leukemia)
Protocol: as §1

[7] = tested on: MCF7 (breast); experiment: In vitro cytotoxic activity (MTT) assay, MCF7; settings: Homo sapiens; MCF7 cells, exposed for 96 hours, 50% inhibition of cell proliferation; read-out: Cytotoxicity activity IC50, MCF7 (breast)
Protocol: as §1

[8] = tested on: MDA-MB-231 (breast); experiment: In vitro cytotoxic activity (MTT) assay, MDA-MB-231; settings: Homo sapiens; MDA-MB-231 cells, exposed for 96 hours, 50% inhibition of cell proliferation; read-out: Cytotoxicity activity IC50, MDA-MB-231 (breast)
Protocol: as §1

O=C(O)c1ccc2c(c1)nc(Nc1cccc(Cl)c1)c1ccncc12 [CX-4945, reference compound]
IC50 [1]: 2000 nM
IC50 [2]: 2300 nM
IC50 [3]: 4100 nM
IC50 [4]: 2300 nM
IC50 [5]: 1000 nM
IC50 [6]: 3700 nM
IC50 [7]: 9100 nM
IC50 [8]: 6200 nM
